# Experimental data from patent publication US20110112195A1 (priority 2004, published 2011).
# Entries after “also recorded” stand apart in the source; their conditions may differ. At least one structure is not confirmed: it was looked up by name or label, or the drawing left a doubt.
# What was measured:
# [1] = test system: SARS-CoV; type: cell-based
# [2] = test system: SARS-CoV; type: cell-based; remark: listed apart in the source
# [3] = test system: SARS-CoV spike protein; type: cell-based
# [4] = test system: adenovirus type 5 expressing EGFP; type: cell-based
# [5] = test system: vaccinia virus (WR); type: cell-based
# [6] = target: H1L phosphatase (GST-H1L fusion protein) (Vaccinia virus, UniProt P07239); type: biochemical
# [7] = test system: YopH; type: biochemical, Yersinia pestis
# [8] = target: T-cell phosphatase (Homo sapiens, UniProt P17706); type: biochemical
# [9] = target: LAR (Homo sapiens, UniProt P10586); type: biochemical
# [10] = test system: F10L mRNA; GADPH control; type: cell-based, vaccinia virus
# [11] = test system: Erk1/2; type: cell-based
# [12] = test system: Adenovirus; type: cell-based
smiles,measurement,setting,value
"O=C(O)C1=CC(=C(c2ccc(O)c(C(=O)O)c2)c2ccc(O)c(C(=O)O)c2)C=CC1=O [ATA, aurintricarboxylic acid]",inhibition effect on SARS-CoV replication (logs),[1],more than three logs
same,inhibition effect with pre-treatment compared with samples without pre-treatment,[2],about the same
same,"level of the S protein, treated vs untreated group",[3],significantly lower
same,viral protein synthesis,[3],blocked viral protein synthesis
same,inhibition of EGFP expression by adenovirus,[4],failure to inhibit
same,drop of viral load compared to control with no drug,[5],over one log value
same,inhibition of vv replication in other cell lines compared with Hela,[5],results were similar
same,enzyme activity at highest ATA concentration,[6],still showed activity
same,ATA concentration at which enzyme activity became detectable,[7],4 µM
same,ATA concentration at which enzyme activity became detectable,[8],4 µM
same,potency of ATA compared to H1L,[8],more selective; also recorded: greater inhibitory effect
same,enzyme activity at highest ATA concentration,[9],still showed activity
same,potency of ATA compared to H1L,[9],less so; also recorded: less affected
same,GADPH levels,[10],increased
same,presence of F10 mRNA,[10],decreased
same,levels of phospho-Erk protein / ERK signaling cascade,[11],down-regulated; also recorded: decrease
same,Adenovirus replication with ATA present compared to no ATA,[12],seven times higher
same,effect on Adenovirus,[12],stimulated viral replication
